Results are given in words; binding and its absence hold for the method and conditions named. In cells and extracts the contact can be indirect. For some of these results: Binding can be weak; no strength is given.

What all share (assay): co-IP; Flag-CDK11 wild type or T-loop mutants precipitated on Flag agarose M2 from HCT116 lysate (300 mM KCl lysis buffer), washed with high-salt buffer (500 mM KCl); immunoblot
For orientation: Immunoblotting shows a protein as a band on a membrane.

Assay [1] has as its target flag-tagged CDK11 T595D (human).
Assay [2] has as its target flag-tagged CDK11 T595E (human).
In assay [3] the target is flag-tagged CDK11 T595A (human).
For assay [4], the target named is flag-tagged wild-type CDK11 (human).

B1: CCNL1 (protein, UniProt Q9UK58 1-526)
chain: MASGPHSTATAAAAASSAAPSAGGSSSGTTTTTTTTTGGILIGDRLYSEVSLTIDHSLIPEERLSPTPSMQDGLDLPSETDLRILGCELIQAAGILLRLPQVAMATGQVLFHRFFYSKSFVKHSFEIVAMACINLASKIEEAPRRIRDVINVFHHLRQLRGKRTPSPLILDQNYINTKNQVIKAERRVLKELGFCVHVKHPHKIIVMYLQVLECERNQTLVQTAWNYMNDSLRTNVFVRFQPETIACACIYLAARALQIPLPTRPHWFLLFGTTEEEIQEICIETLRLYTRKKPNYELLEKEVEKRKVALQEAKLKAKGLNPDGTPALSTLGGFSPASKPSSPREVKAEEKSPISINVKTVKKEPEDRQQASKSPYNGVRKDSKRSRNSRSASRSRSRTRSRSRSHTPRRHYNNRRSRSGTYSSRSRSRSRSHSESPRRHHNHGSPHLKAKHTRDDLKSSNRHGHKRKKSRSRSQSKSRDHSDAAKKHRHERGHHRDRRERSRSFERSHKSKHHGGSRSGHGRHRR
On to B1, for which the binding result in assay [1] is “no binding”; in assay [2], “no binding”; in assay [3] it was “no binding”; in assay [4], “binds”.
